In this data set the test system is ARPE-19 monolayers. Description: Suppression of gHSA-induced reduction of TEER in confluent ARPE-19 monolayers. The conditions noted are these: for Hill coefficient: ARPE-19 assay, concentration-response; for Hill coefficient of concentration response curve: regression analysis. It counts as cell-based.

Take `CC(=O)Oc1c(C)cc(OCC(O)CNC(C)C)c(C)c1C` (stereo not shown) [Metipranolol, metipranolol]: the Hill coefficient is listed as 1 and the “Hill coefficient of concentration response curve” value was ~1.

As to `Cc1cc(OCC(O)CNC(C)C)c(C)c(C)c1O` (stereo not shown) [Desacetylmetipranolol, desacetylmetipranolol], the Hill coefficient was 1 and the “Hill coefficient of concentration response curve” value is ~1.

These data come from patent publication US11400070B2, “Methods of treating retinal diseases” (Alimera Sciences, Inc., priority 2018, dated 2022).
